The text below walks through data of patent US12673029B2, “Nanodelivery system based on globulin-1 S allele, preparation method therefor and use thereof” (Zhejiang Gongshang University, priority 2022, dated 2026).

For this data set, the system named is wheat GSA protein (globulin-1 S allele). Put plainly: Fluorescence quenching determination of the binding force of wheat GSA protein to curcumin. Here is the method:
A wheat GSA protein solution and a curcumin solution were mixed in a certain ratio (1:1, 1:2, 1:5, 1:10) at different temperatures (298 K, 303 K, 310 K) for 2 hours. The final concentration of GSA was 1 μM, wherein the molecular weight of GSA was 56.16 KDa and the concentration of curcumin was 1 μM, 2 μM, 5 μM and 10 μM. The excitation spectrum was set at 280 nm, the emission spectrum was from 320 nm to 500 nm, and the recording temperature was 298 K, 303 K, and 310 K.
At an excitation wavelength of 280 nm, tryptophan and tyrosine residues will be excited. Binding of proteins and small molecules will lead to a decrease in fluorescence emission. As the concentration of curcumin increased, the fluorescence intensity decreased constantly and a slight red shift appeared.
Fluorescence quenching can be divided into dynamic quenching and static quenching. A dynamic quenching process can be distinguished by a Stern-Volmer equation: F0/F=1+KSV[Q]=1+Kqτ0[Q] (1)
wherein F0 and F are the GSA fluorescence intensity of the system in the absence and presence of curcumin, respectively; [Q] is the concentration of a quencher curcumin; and Kq is a fluorescence quenching rate constant.
Values for a static quenching mechanism, a binding constant and the number of binding sites can be obtained from a […] equation: log[(F0-F)/F]=log(Ka)+n log[Q] (2)
wherein Ka is a binding constant, [Q] is the concentration of curcumin, and n is the number of binding sites. A log-log plot of log[(F0−F)/F] versus log[Q] was made at 298 K, 303 K, and 310 K, respectively, according to the equation, as shown in FIG. 3. Ka and n at different temperatures were obtained from the intercept and slope.
To determine the action force between GSA and curcumin, the temperature-dependent thermodynamic parameters (ΔG, ΔH, and ΔS) were calculated using the following equations: -lnK==−ΔH/RT+ΔS/RΔG=ΔH−TΔS (3) • wherein R is a gas constant (8.314 J/mol*K), and T is the experimental temperature.

For `COc1cc(/C=C/C(=O)CC(=O)/C=C/c2ccc(O)c(OC)c2)ccc1O` [curcumin, Curcumin], for the setting “298 K”, the “n (number of binding sites)” value was determined as 1.099 and the ΔG is -9.4534 kcal/mol. In addition, the “n of binding curcumin to GSA” value (298 K, 303 K, and 310 K) was around 1. For the same molecule, under “303 K”, the “n (number of binding sites)” value is recorded as 1.1540 and the ΔG was -9.9787 kcal/mol. In addition, under “310 K”, the “n (number of binding sites)” value was 1.1593 and the ΔG is -10.714 kcal/mol. Besides, under “from 298 K, 303 K, 310 K data”, the ΔH is 21.855 kcal/mol and the ΔS worked out at 0.105063 kcal/mol.
